Some entries share one result that the patent states for a list of compounds.
Tested on: many types of cancer cells
Experiment: growth of many types of cancer cells on the skin of mice pre-injected via tail vein
Format: in vivo
Details: BALB/c, nude and NOD-SCID mice

| Substance | suppression of growth of many types of cancer cells on the skin |
| --- | --- |
| NH-MSSRRSSSCKYCEQDFRAHTQKNAATPFLAN-COOH [Zfra1-31] | 65-100% |
| RRSSSCK [Zfra4-10] | 65-100% |
